This test deals with dNOE1–mScarlet (dimeric NOE1 construct, residues 205-481 with five GCN4 residues) (rat) (UniProt Q62609). The test is described as follows: SEC; FSEC, Superose 6; 5 nM dNOE1–mScarlet with 200 nM GluA1, GluA2 or GluA3 or 15–150 nM GluA4, 10 min; 20 mM Tris pH 8.0, 150 mM NaCl, 2 μM ZK, 10 μM (R,R)-2b, 0.075% digitonin; mScarlet fluorescence; both purified.

Amino acid sequences for entries named in this document (tags omitted). A change or cut given only in a name is not applied to a line headed by its entry. Residues count along the entry.
UniProt Q62609: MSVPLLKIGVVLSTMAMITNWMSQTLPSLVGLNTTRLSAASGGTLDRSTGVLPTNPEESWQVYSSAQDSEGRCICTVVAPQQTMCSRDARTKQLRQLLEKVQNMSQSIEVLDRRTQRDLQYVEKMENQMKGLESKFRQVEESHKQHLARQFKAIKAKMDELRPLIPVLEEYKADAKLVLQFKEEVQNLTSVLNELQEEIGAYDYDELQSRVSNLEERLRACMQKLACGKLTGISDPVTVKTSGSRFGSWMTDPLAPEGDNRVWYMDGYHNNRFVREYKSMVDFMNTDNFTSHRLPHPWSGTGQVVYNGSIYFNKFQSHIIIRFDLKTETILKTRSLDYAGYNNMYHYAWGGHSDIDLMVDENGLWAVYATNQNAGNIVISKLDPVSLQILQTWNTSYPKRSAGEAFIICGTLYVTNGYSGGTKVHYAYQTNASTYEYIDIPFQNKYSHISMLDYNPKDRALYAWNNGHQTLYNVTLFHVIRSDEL
UniProt P19491, residues 22-883: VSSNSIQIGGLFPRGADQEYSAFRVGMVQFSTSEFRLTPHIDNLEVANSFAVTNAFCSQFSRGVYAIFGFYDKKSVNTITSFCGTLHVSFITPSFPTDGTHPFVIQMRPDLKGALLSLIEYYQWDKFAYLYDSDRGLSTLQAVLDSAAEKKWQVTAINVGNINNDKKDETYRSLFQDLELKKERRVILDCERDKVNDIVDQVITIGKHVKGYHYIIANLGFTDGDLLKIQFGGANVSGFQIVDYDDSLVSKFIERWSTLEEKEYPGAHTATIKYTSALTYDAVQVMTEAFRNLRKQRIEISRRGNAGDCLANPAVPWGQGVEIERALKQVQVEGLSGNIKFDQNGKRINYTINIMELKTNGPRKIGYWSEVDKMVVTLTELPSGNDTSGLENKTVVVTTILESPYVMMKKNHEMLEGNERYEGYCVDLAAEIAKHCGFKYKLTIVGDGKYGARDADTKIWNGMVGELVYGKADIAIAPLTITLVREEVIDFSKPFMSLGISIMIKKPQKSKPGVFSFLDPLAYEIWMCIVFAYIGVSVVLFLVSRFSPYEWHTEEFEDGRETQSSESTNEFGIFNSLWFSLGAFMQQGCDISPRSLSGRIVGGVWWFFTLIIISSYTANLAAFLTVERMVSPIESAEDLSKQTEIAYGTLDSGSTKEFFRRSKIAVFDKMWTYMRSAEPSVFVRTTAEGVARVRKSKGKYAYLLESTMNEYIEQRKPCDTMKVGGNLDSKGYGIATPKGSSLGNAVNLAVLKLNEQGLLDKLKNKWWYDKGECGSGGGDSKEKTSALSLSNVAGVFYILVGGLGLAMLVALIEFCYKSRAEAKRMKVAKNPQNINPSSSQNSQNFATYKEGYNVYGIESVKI
UniProt P19492, residues 23-888: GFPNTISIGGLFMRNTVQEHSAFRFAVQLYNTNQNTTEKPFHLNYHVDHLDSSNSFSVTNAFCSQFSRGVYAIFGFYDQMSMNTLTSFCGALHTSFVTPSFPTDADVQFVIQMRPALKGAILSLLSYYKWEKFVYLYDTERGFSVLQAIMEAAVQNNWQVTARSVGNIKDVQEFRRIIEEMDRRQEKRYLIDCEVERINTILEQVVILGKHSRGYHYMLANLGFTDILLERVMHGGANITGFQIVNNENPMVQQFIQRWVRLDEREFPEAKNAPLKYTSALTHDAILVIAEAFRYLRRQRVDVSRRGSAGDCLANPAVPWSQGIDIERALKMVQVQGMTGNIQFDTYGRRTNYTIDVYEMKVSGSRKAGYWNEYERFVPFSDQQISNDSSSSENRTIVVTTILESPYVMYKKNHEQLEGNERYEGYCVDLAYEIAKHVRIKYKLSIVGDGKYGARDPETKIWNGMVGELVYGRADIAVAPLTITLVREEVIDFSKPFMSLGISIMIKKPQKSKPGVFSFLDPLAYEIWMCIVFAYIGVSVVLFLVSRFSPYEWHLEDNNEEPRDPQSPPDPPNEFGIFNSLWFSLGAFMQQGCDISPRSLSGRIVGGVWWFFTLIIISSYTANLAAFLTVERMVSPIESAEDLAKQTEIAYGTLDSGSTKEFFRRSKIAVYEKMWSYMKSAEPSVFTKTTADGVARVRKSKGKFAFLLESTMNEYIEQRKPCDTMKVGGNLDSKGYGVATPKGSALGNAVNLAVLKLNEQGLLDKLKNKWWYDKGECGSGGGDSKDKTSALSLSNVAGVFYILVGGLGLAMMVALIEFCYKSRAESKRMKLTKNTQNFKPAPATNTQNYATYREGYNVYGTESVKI

Results are given in words; binding and its absence hold for the method and conditions named.

As for “recombinant homomeric GluA2 receptor (C-terminal GFP and Strep tag) (from UniProt P19491 22-883)”, the binding result was “no binding (tested: 200 nM GluA2 with 5 nM dNOE1–mScarlet)”.
“recombinant homomeric GluA3 receptor (C-terminal GFP and Strep tag) (from UniProt P19492 23-888)”: the binding entry is “no binding (tested: 200 nM GluA3 with 5 nM dNOE1–mScarlet)”.

Values taken from publication PMC12422955.
